In the supplement of paper PMC3334620:
Over roughly 33,000 sequences, “E-score (-0.5 to 0.5)” has its median near -0.015; the highest 2% begin near 0.3. This is one part of the list.

biological target: T1, Abf1 (UniProt P14164); assay: PBM E-score (8-mer binding enrichment) (E-score (-0.5 to 0.5)); higher = stronger / more preferred TF binding; details: protein concentration: 200 nM; construct: GST-full length
T1 sequence: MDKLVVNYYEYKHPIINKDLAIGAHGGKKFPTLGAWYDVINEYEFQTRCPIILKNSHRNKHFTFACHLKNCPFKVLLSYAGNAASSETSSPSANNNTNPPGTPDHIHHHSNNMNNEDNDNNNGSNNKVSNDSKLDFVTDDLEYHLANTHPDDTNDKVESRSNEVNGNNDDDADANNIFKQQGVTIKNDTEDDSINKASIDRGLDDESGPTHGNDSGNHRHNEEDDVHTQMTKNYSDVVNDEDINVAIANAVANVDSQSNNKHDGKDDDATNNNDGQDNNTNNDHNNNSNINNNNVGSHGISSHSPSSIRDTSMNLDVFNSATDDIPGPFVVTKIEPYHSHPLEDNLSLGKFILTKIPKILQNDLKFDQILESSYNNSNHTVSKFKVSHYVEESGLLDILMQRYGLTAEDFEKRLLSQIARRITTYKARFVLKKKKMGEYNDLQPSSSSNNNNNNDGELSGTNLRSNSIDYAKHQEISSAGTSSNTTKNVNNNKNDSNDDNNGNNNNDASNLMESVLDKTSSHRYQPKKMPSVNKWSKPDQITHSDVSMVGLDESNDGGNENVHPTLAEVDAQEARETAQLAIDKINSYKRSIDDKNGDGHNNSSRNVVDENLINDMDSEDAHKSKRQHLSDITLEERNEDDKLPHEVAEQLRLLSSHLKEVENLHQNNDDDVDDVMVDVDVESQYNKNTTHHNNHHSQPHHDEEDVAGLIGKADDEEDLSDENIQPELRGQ
In short: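 Using PURExpress in vitro transcription/translation, GST-tagged yeast transcription factors were made in full-length or DNA-binding-domain form. These were applied at about 100-200 nM to double-stranded universal all-10-mer Agilent arrays, and bound protein was detected with fluorescent anti-GST. Scans were normalised with masliner before the Universal PBM Analysis Suite assigned E-scores to ungapped eight-base words pooled with their reverse complements.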

Sequence | PBM E-score
AAACTCTC | 0.0963
AGCCTCAT | -0.176
ATCTCATC | 0.187
AAGGACTT | -0.181
CGCCACCG | -0.0617
CAAATCCA | -0.00519
CTGTACGA | 0.383
AGTGTGAG | -0.0581
ATTGGCGA | -0.0946
GTTTAGGA | -0.194
AAGGGTCT | -0.19
ACCAGTAG | -0.0228
CTTGGATA | -0.0809
AATCACCT | 0.185
AGAGCGGA | -0.0903
CCTCTAAA | -0.225
AGCATCTC | -0.0427
ACAATGCC | -0.0597
GCCTTGCA | -0.00308
ATAAAGGG | -0.0362
AGCAGAGC | -0.258
AGGACGTC | 0.0509
GTCCCTAA | 0.0908
CTCGCAAA | -0.126
GACTGTAC | 0.151

Given as a markdown table: part of the list above.

| Sequence | PBM E-score |
| --- | --- |
| AAACTCTC | 0.0963 |
| CTGTACGA | 0.383 |
| ATTGGCGA | -0.0946 |
| ACCAGTAG | -0.0228 |
| ACAATGCC | -0.0597 |
| AGCAGAGC | -0.258 |

Following part.

Sequence | PBM E-score
ACCCTCTC | -0.224
CACCATCG | -0.0531
GCACAAAA | 0.0917
ATAACCCG | -0.108
CATTACGA | 0.128
AACGATAA | 0.294
CCTGGGAA | 0.0284
CCGATTCG | -0.13
ACGGTCAA | 0.0179
CGTCATCC | 0.167
AAAGGATC | 0.0169
CCTGATCA | 0.112
GGTATTAA | 0.0692
AGACTGAG | -0.187
CGGACCAC | -0.0306
CATTTGTA | 0.0925
AAAGTTAC | 0.0908
AGGGGCAT | -0.0652
TACAAATA | 0.0111
AAAGACAT | -0.0189
AGCCCGCT | -0.277
CGACCATA | 0.00622
ATACGTCG | 0.175
CGAACTAA | 0.111
CGCCTGCA | -0.0961

Reprinted at random: two records from the list
Sequence | PBM E-score
CATTACGA | 0.128
CGACCATA | 0.00622

Following part.

Sequence | PBM E-score
ACGGACTG | 0.0212
AAAAACCA | -0.0169
GACGACGA | 0.251
GGAAATCC | -0.0758
CATGTGAG | 0.0113
GCGATAAC | 0.158
CCGTATGC | 0.0398
AACAGATG | -0.135
AGCCCTCG | -0.055
CAGTTAAA | 0.0855
TTCTTAAA | -0.0951
AACCTAAG | 0.0698
GCGCGACC | 0.0631
GTCCATGA | 0.0241
CAGAAGGA | -0.295
AACTAGGG | -0.0853
ACAAAAAA | 0.0295
AAACAAAA | 0.0765
TACCTAGA | 0.026
CCCGCAAA | -0.0869
CAGGAAAA | 0.0548
CGCGAGAA | -0.324
CTCGCCTA | 0.00128
CACTGTCA | 0.234
ATTATGTG | 0.174

A portion from further up, for reference:
Sequence | PBM E-score
AACAGATG | -0.135
AGCCCTCG | -0.055
CAGTTAAA | 0.0855
TTCTTAAA | -0.0951

Later entries:

Sequence | PBM E-score
ACTTATTG | 0.0459
AAGGGTTC | -0.192
AAACTGAA | 0.00963
ACGACCGG | -0.00676
CCTTTACA | -0.209
CCACGATA | 0.143
CGAGTTCA | -0.0513
AAGGATAC | -0.0825
GGGCCTAA | -0.206
ATGTCGTC | 0.29
ACTTCGCC | 0.152
ACCTCGTG | 0.225
CTCTAATA | 0.175
AACAGCCA | -0.0714
CTCTGTTA | -0.106
GTGTGGAA | -0.00899
CCATGGAA | -0.104
AATGACCT | 0.223
ATTGGAAC | 0.094
GCACTGTA | -0.0736
TAGTATCA | 0.289
GAAAGGAA | -0.113
AGGTGATG | 0.163
CTACATCA | 0.196
AGCGAGAG | 0.0522

Sequence | PBM E-score
ATAGACGG | 0.246
CTGACCAG | -0.105
TAACTGTA | -0.0884
AGTTACGC | -0.0715
GCCACGAC | 0.00175
AGTAGAGG | -0.239
ACCTAATC | 0.111
AAAGATAT | 0.208
GAAACATC | -0.00063
CCAGATTC | -0.279
CACGCCCG | 0.131
TCGCAGCA | 0.074
GAATGCCC | -0.0158
ATGTGGAG | -0.0472
ATTGCGCG | 0.0782
CATAAGGC | 0.16
ATCATTTA | 0.305
GACACGGC | 0.184
GGAAGCAA | -0.0647
AAGTTTAA | -0.0962
CGAACGTC | 0.141
AAAGGGTT | -0.171
ACATACAA | -0.0537
GACCTGCA | -0.0976
CTCACGTA | -0.0341

Sequence | PBM E-score
AATACAGT | -0.0854
AACGAGAC | 0.154
CATACAAA | 0.102
AGGTGCTG | -0.099
AAAATTAG | 0.0238
AAACCCTG | 0.0249
TACCCCAA | -0.119
CCCCAGCG | -0.146
CACTCGGG | 0.00587
TCGCATAA | 0.205
GTGATACA | 0.311
AGATTGCC | -0.238
CGACAATA | 0.213
CATCCGTC | 0.154
GTCCTTCA | 0.00811
CTCCCAAG | -0.211
ATTAGCCC | -0.143
ATGCCTGA | 0.00985
CTGAATGC | -0.17
AGCGCCAG | -0.0266
ATCCATTG | -0.00772
GGCATGGA | 0.0281
AGCACCCT | -0.118
GTTATGTA | 0.0364
ACTCAGGC | -0.21

Sequence | PBM E-score
CCTGTCAA | 0.0123
ATCCCGTG | 0.282
TCCAGGGA | -0.0731
CACACTCC | -0.212
ACAGGGCG | -0.124
AGGAGCTG | -0.287
AAGGGCGA | -0.179
GCTCGGGA | -0.26
CGGGAGAC | -0.0376
AACATATC | 0.224
GATACGTA | 0.124
ATGTGTGA | -0.102
ATCTTTCC | 0.0888
AGTGAAAG | -0.186
CAAGGTCA | 0.0883
ATTCTCGC | -0.3
CCATGCCA | -0.0934
AAGTAATC | 0.0454
GAACAGTC | -0.0496
ATCTTGGC | -0.0831
AGAAAGAG | -0.267
CAAACTAG | -0.0662
ATGAACAT | 0.189
CAGGATAG | 0.094
AGGTGCCC | -0.127

Sequence | PBM E-score
CCCGTTTC | -0.127
CTCGGTCC | -0.127
CCAGACAC | -0.025
TCGAATAA | -0.0457
CGCCCAAG | -0.128
CATCGCCC | -0.0286
CTAAACTA | -0.162
CGGTTACA | -0.0435
CATTACCC | -0.0113
CGTGATAG | 0.221
ATTTTAAG | 0.143
TGATTAAA | 0.194
ACCGAGAT | 0.0744
ACAGGCTA | -0.0965
CACTCTCG | 0.0866
CATTTTCG | 0.0799
AAGGGCGT | -0.048
AGGTAACG | 0.092
GGATAGAA | 0.0838
GCTAGACA | -0.0365
CCTGCGAG | -0.0804
GCCCTGCA | -0.107
AGACGTAA | 0.0747
AACCGAAG | -0.124
AAGATACC | 0.017

Sequence | PBM E-score
CTCCTGAA | -0.107
CGGCTGTA | 0.022
AACTTGGA | -0.0953
AGGCCCAC | -0.22
AAGCCGAC | -0.0974
CGTTCAGC | 0.127
GAATACGC | -0.0918
ACCGTCAA | 0.143
ACTTCCGA | 0.0172
CCACCTCC | -0.153
AGGGCGAC | -0.0984
AACCGCGA | 0.0319
TCACCGCA | 0.153
CCAGCTGG | 0.0897
CGTCATAG | 0.143
GAACATAA | 0.0437
GGGATGAC | 0.0961
GCGGAGAC | 0.0742
AGCGCGTG | 0.00517
